PubChem BioAssay AID652259 | Drosophila RNAi Screening Center – 2013

Assay: 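Genome-wide hunt for genes that control Wingless pathway activity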 (primary screen)
Cells: Drosophila clone 8 imaginal disc epithelial cells
Reagent: long dsRNA against Drosophila genes
Treatment: pathway stimulated by co-transfected Wingless expression plasmid
Measurement: 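Firefly luciferase from a tcf-site Wingless reporter, measured alongside co-transfected Renilla luciferase that tracks transfection; pathway stimulated by a Wingless plasmid; the firefly-to-Renilla ratio is not deposited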
Scale: firefly reporter light: higher = more Wg reporter light, before normalisation; Renilla control light: higher = more transfected or surviving cells
Call rule: 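a knock-down is a candidate when at least two out of four statistical tests show it departing from its plate mean; one test alone signals a weak candidate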
Calls: active = candidate regulator (raises or lowers reporter); inactive = not a candidate
The deposit covers about 22,000 reagents; below is an unselected part of those with a known target gene and a result. Over the whole deposit, 233 (1.1%) got an active call. 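Light values are raw, unnormalised plate reads; the ratio scores behind the reporter calls were not deposited.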 A number with no mark means an inactive call. The numbers tell different reagents against one gene apart. The record does not give: the amount of reagent, the time to read-out, the dose of the treatment.

Target gene | dsRNA no. | reporter change call, replicate 1 | firefly reporter light, replicate 1 | firefly reporter light, replicate 2 | Renilla control light, replicate 1 | Renilla control light, replicate 2
CG12084 | 1 | – | 25696 | – | 5920 | –
CG10628 | 1 | – | 2696 | 3396 | 585 | 1480
ODA-Dnal1 | 1 | – | 3546 | 12357 | 758 | 3195
AsnS | 1 | – | 3075 | – | 1540 | –
CG7560 | 1 | – | 7357 | – | 5193 | –
CG13293 | 1 | – | 1051 | 8915 | 1004 | 2688
PH4alphaNE1 | 1 | – | 1956 | 3587 | 856 | 889
CG31327 | 1 | – | 2492 | – | 925 | –
aurB | 1 | – | 6442 | – | 2188 | –
fest | 1 | – | 7898 | – | 1674 | –
Prosalpha6T | 1 | – | 2645 | 5624 | 1080 | 2968
Pgant7 | 1 | – | 1483 | 5691 | 643 | 2112
PVRAP | 1 | – | 1632 | 4572 | 1241 | 2107
PVRAP | 2 | – | 1590 | 5242 | 1456 | 3348
CG16935 | 1 | – | 4518 | – | 1753 | –
CG12692 | 1 | – | 22820 | – | 7794 | –
MESR3 | 1 | – | 1913 | 4440 | 357 | 2486

Limited to “firefly reporter light, replicate 1” (2 entries from above):
CG7560: 7357
CG13293: 1051

The results go on.
Target gene | dsRNA no. | reporter change call, replicate 1 | firefly reporter light, replicate 1 | firefly reporter light, replicate 2 | Renilla control light, replicate 1 | Renilla control light, replicate 2
CCT7 | 1 | – | 17778 | – | 3248 | –
Mos | 1 | – | 3157 | – | 1321 | –
CG10681 | 1 | – | 12546 | – | 3617 | –
CG10681 | 2 | – | 8.10e5 | 8.24e5 | 4.32e5 | 3.38e5
Atat | 1 | – | 2835 | – | 1137 | –
Vps16A | 1 | – | 10004 | – | 1859 | –
kek4 | 1 | – | 10679 | – | 2197 | –
CG15153 | 1 | – | 2220 | 5280 | 1077 | 2136
Lipt2 | 1 | – | 10164 | – | 4631 | –
Lipt2 | 2 | – | 4.48e5 | 4.51e5 | 1.83e5 | 1.51e5
Samuel | 1 | – | 2250 | 4149 | 650 | 1674
Samuel | 2 | Wg reporter activity raised (active) | 7435 | 2996 | 1222 | 459
Samuel | 3 | – | 3370 | 8371 | 1380 | 4754
Samuel | 4 | – | 5.15e5 | 5.35e5 | 1.94e5 | 1.46e5
